PubChem BioAssay AID1259274, Sanger Institute – 2017
In all, the deposit lists 794 reagents; this is an unselected part. Of all reagents, 11 (1.4%) got an active call. 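Calls rest on knock-down without drug only; synergy scores with anchor drugs were not used for the essential call.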 No viability above 1 is reported: the scale is capped. Not given: the amount of reagent, the time to read-out.

- Aim: 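Kinase knock-downs that cut colorectal cancer cell viability or boost drug killing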 (primary screen)
- Cells: human RKO colorectal cancer cells
- Knock-down reagent: siRNA pool against human genes
- Challenge: anchor drugs BYL719 at 1 µM, cetuximab at 5 µg/ml or trametinib at 10 nM; DMSO vehicle as the no-drug arm
- Read-out: 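Viability as fraction of non-targeting pool 2 control, averaged across replicates, robust z-score for single knock-down, and a combination synergy score per anchor drug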
- Reading the numbers: viability z-score, siRNA alone: higher = more viable cells; low values mean essential gene; viability, siRNA alone, vehicle: higher = more viable cells; synergy score with BYL719 and synergy score with Trametinib and synergy score with Cetuximab: higher = stronger combined killing with the drug
- Active means: 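a single knock-down scoring under -3 on the robust z-score, meaning fewer cells, counts as essential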
- Calls: active = essential when knocked down alone; inactive = no change alone

no.	target gene	viability z-score, siRNA alone	viability, siRNA alone, vehicle (fraction of control)	synergy score with BYL719	synergy score with Trametinib	synergy score with Cetuximab	activity call
1	RIOK1 (RIO kinase 1)	-0.902	0.821	-0.13	-0.236	-0.109	inactive
2	EIF2AK2 (eukaryotic translation initiation factor 2 alpha kinase 2)	-0.231	0.878	-0.174	-0.286	0.0167	inactive
3	MED24 (mediator complex subunit 24)	0.371	0.93	0.0471	-0.186	-0.0409	inactive
4	PIK3R2 (phosphoinositide-3-kinase regulatory subunit 2)	0.917	0.977	-0.0183	-0.0122	0.0592	inactive
5	BMAL1 (basic helix-loop-helix ARNT like 1)	-2.19	0.71	-0.00669	0.00391	-0.0812	inactive
6	CDK17 (cyclin dependent kinase 17)	0.283	0.922	-0.0805	-0.177	-0.0777	inactive
7	RPS6KC1 (ribosomal protein S6 kinase C1)	-0.262	0.876	-0.0667	-0.0964	-0.0243	inactive
8	CDKL4 (cyclin dependent kinase like 4)	0.641	0.953	-0.0495	-0.168	-0.0374	inactive
9	MYH10 (myosin heavy chain 10)	1.19	1	0.106	-0.129	0.0938	inactive
10	SIK3 (SIK family kinase 3)	0.427	0.935	-0.106	-0.165	-0.0405	inactive
11	VRK1 (VRK serine/threonine kinase 1)	-0.369	0.866	-0.205	-0.116	-0.0135	inactive
12	ACVR1B (activin A receptor type 1B)	0.366	0.929	-0.0232	-0.131	-0.00774	inactive
13	TRPM7	-2.18	0.711	-0.0471	-0.226	-0.155	inactive
14	IP6K1 (inositol hexakisphosphate kinase 1)	0.881	0.973	-0.13	-0.169	-0.0265	inactive
15	LATS1 (large tumor suppressor kinase 1)	-1.42	0.777	-0.064	-0.0624	0.00227	inactive
16	ALDH18A1 (aldehyde dehydrogenase 18 family member A1)	0.119	0.908	-0.07	-0.237	-0.0235	inactive
17	AK5 (adenylate kinase 5)	0.175	0.913	-0.107	-0.149	0.0335	inactive
18	MAP3K14 (mitogen-activated protein kinase kinase kinase 14)	-0.617	0.845	-0.0911	-0.0783	-0.155	inactive
19	EPHA8 (EPH receptor A8)	-0.718	0.837	-0.219	-0.35	-0.156	inactive
20	GUCY2EP (guanylate cyclase 2E, pseudogene)	0.399	0.932	-0.0837	-0.108	0.0318	inactive
21	ATP23	0.0731	0.904	-0.0443	-0.193	-0.0563	inactive
22	TSSK2 (testis specific serine kinase 2)	-0.804	0.829	-0.0878	-0.00485	-0.0721	inactive
23	CTNNB1 (catenin beta 1)	0.766	0.964	-0.0814	-0.208	0.0309	inactive
24	PLK3 (polo like kinase 3)	0.36	0.929	-0.021	-0.131	0.0401	inactive
25	TAB1 (TGF-beta activated kinase 1 (MAP3K7) binding protein 1)	-0.329	0.87	-0.124	-0.29	-0.115	inactive
26	SCYL1 (SCY1 like pseudokinase 1)	0.422	0.934	0.00342	-0.357	-0.022	inactive
27	RPS6KA3 (ribosomal protein S6 kinase A3)	0.174	0.913	0.0201	-0.271	-0.087	inactive
28	POMK (protein O-mannose kinase)	0.55	0.945	-0.00626	-0.215	-0.000165	inactive
29	DDR1 (discoidin domain receptor tyrosine kinase 1)	1.19	1	0.0304	0.108	0.125	inactive
30	SNRK (SNF related kinase)	0.702	0.958	-0.00326	-0.171	-0.0333	inactive

Laid out differently: entries from further up
target gene,"viability z-score, siRNA alone","viability, siRNA alone, vehicle (fraction of control)",synergy score with BYL719,synergy score with Trametinib,synergy score with Cetuximab,activity call
ATP23,0.0731,0.904,-0.0443,-0.193,-0.0563,inactive
TSSK2 (testis specific serine kinase 2),-0.804,0.829,-0.0878,-0.00485,-0.0721,inactive
CTNNB1 (catenin beta 1),0.766,0.964,-0.0814,-0.208,0.0309,inactive
PLK3 (polo like kinase 3),0.36,0.929,-0.021,-0.131,0.0401,inactive
TAB1 (TGF-beta activated kinase 1 (MAP3K7) binding protein 1),-0.329,0.87,-0.124,-0.29,-0.115,inactive
SCYL1 (SCY1 like pseudokinase 1),0.422,0.934,0.00342,-0.357,-0.022,inactive

Continued:
no.	target gene	viability z-score, siRNA alone	viability, siRNA alone, vehicle (fraction of control)	synergy score with BYL719	synergy score with Trametinib	synergy score with Cetuximab	activity call
31	NADK (NAD kinase)	-0.506	0.855	-0.0183	-0.073	-0.0421	inactive
32	PIP5K1B (phosphatidylinositol-4-phosphate 5-kinase type 1 beta)	-2.25	0.705	0.0158	-0.0309	-0.148	inactive
33	NR2F2 (nuclear receptor subfamily 2 group F member 2)	-0.799	0.83	-0.0592	-0.136	-0.0156	inactive
34	MAPK11 (mitogen-activated protein kinase 11)	0.00952	0.899	0.0112	-0.155	-0.0183	inactive
35	MPP2 (MAGUK p55 scaffold protein 2)	-0.692	0.839	0.0144	-0.0183	-0.0645	inactive
36	RIPK2 (receptor interacting serine/threonine kinase 2)	0.00935	0.899	0.0135	-0.0125	0.0775	inactive
37	CIB2 (calcium and integrin binding family member 2)	-0.483	0.857	0.0201	-0.185	-0.126	inactive
38	PRKDC (protein kinase, DNA-activated, catalytic subunit)	-1.38	0.779	-0.0289	0.011	-0.109	inactive
39	PRKACB (protein kinase cAMP-activated catalytic subunit beta)	1.19	1	0.00542	-0.137	0.0554	inactive
40	BMP2K (BMP2 inducible kinase)	0.0254	0.9	-0.08	-0.0151	-0.00252	inactive
41	STK25 (serine/threonine kinase 25)	-2.37	0.695	-0.0969	-0.143	-0.182	inactive
42	TK2 (thymidine kinase 2)	0.518	0.942	-0.0964	-0.0958	0.107	inactive
43	CILK1 (ciliogenesis associated kinase 1)	1.14	0.996	0.0106	-0.113	-0.00419	inactive
44	MAGI2	0.384	0.931	-0.135	-0.221	-0.0246	inactive
45	BCOR (BCL6 corepressor)	1.1	0.992	0.11	0.0943	0.0693	inactive
46	CALM2 (calmodulin 2)	0.417	0.934	-0.116	-0.201	0.0126	inactive
47	HUNK (hormonally up-regulated Neu-associated kinase)	-0.639	0.843	-0.194	-0.12	-0.0288	inactive
48	PFKFB4 (6-phosphofructo-2-kinase/fructose-2,6-biphosphatase 4)	1.19	1	0.124	-0.154	0.00205	inactive
49	FLT4 (fms related receptor tyrosine kinase 4)	0.872	0.973	-0.0132	-0.0186	-0.0273	inactive
50	PKLR (pyruvate kinase L/R)	0.933	0.978	-0.0822	-0.145	0.0551	inactive
